Source: patent US11542288B2, “Antiviral compounds” (priority 2020, dated 2023)
Read-outs that look alike come from different tables or passages of the source. Some results were stated once for a whole list of compounds, not compound by compound.

System: highly resistant HIV-1 protease variants
Assay: Enzyme inhibition against highly resistant protease variants, potency relative to comparators
Format: biochemical

Structure (SMILES) | fold more potent than DRV | fold more potent than DRV (listed as PU7) | fold more potent than DRV (listed as PU10)
CCOP(=O)(COc1ccc(C[C@H](NC(=O)O[C@H]2CO[C@H]3OCC[C@H]32)[C@H](O)CN(CC(CC)CC)S(=O)(=O)c2ccc(OC)cc2)cc1)OCC [Example 8, (3R,3aS,6aR)-hexahydrofuro[2,3-b]furan-3-yl ((2S,3R)-1-(4-((diethoxyphosphoryl)methoxy)phenyl)-4-((N-(2-ethylbutyl)-4-methoxyphenyl)sulfonamido)-3-hydroxybutan-2-yl)carbamate] | 10-500 fold | 10-100 fold | 
CCOP(=O)(COc1ccc(C[C@H](NC(=O)O[C@H]2CO[C@H]3OCC[C@H]32)[C@H](O)CN(CC(CC)CC)S(=O)(=O)c2ccc3ncsc3c2)cc1)OCC [Example 12, (3R,3aS,6aR)-hexahydrofuro[2,3-b]furan-3-yl ((2S,3R)-1-(4-((diethoxyphosphoryl)methoxy)phenyl)-4-(N-(2-ethylbutyl)benzo[d]thiazole-6-sulfonamido)-3-hydroxybutan-2-yl)carbamate] | 10-500 fold |  | 10-100 fold
